This experiment addresses TRBC1 (T-cell receptor beta constant region 1) (human) (UniProt P01850). In words: ELISA.

Sequences of proteins named here, by UniProt entry; tags and fusion partners are left off. Residues count along the entry.
UniProt P01850, residues 1-129: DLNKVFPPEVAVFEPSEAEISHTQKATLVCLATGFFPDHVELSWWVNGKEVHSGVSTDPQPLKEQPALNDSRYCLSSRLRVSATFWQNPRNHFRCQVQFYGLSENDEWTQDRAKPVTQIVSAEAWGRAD

Where a chain is given by its changes, count along the chain named. Results are given in words; binding and its absence hold for the method and conditions named. Some entries that bind do so weakly or less than the wild type.

B1: Jovi Hum 8 (antibody, V domains shown)
VH: QVQLVQSGAEVKKPGASVKVSCKASGYTFTGYVMHWVRQAPGQGLEWMGFINPYNDDIQSNERFRGRVTMTRDTSISTAYMELSRLRSDDTAVYYCARGAGYNFDGAYRFFDFWGQGTMVTVSS
VL: DIVMTQSPLSLPVTPGEPASISCRSSQRLVHSNGNTYLHWYLQKPGQSPRLLIYRVSNRFPGVPDRFSGSGSGTDFTLKISRVEAEDVGVYYCSQSTHVPYTFGQGTKLEIK
notes: H-AF 1 carries no back-mutation (Q3, V20, M48, R71, T73), i.e. the plain H-AF062256 graft; also called H-AF 1; H-AF1, 3aaz
B1: the binding entry is “binds”.

B2: humanised antibody with H-KF688165 VH and 3aaz VL (antibody, V domains shown)
VH: B1 VH with G26E, T28S, L83V, R85S, R87T, T91A, V93I, M119L
VL: B1 VL
As to B2, the binding result is “binds”.

B3: humanised antibody with H-EF177999 VH and 3aaz VL (antibody, V domains shown)
VH: B1 VH with Q1E, Q6E, I76T, A79V, R85S, D89E, M119L
VL: B1 VL
For the molecule B3, the binding entry is given as “binds”.

B4: Jovi Hum 19 (antibody, V domains shown)
VH: B1 VH with M48I
VL: B1 VL
notes: also called H-AF 5
For the molecule B4, the binding result is “binds”.

B5: Jovi Hum 20 (antibody, V domains shown)
VH: B1 VH with M48I, T74K
VL: B1 VL
notes: also called H-AF 6
Regarding B5, the binding result is listed as “binds”.

B6: Jovi Hum 16 (antibody, V domains shown)
VH: B1 VH with T74K
VL: B1 VL
notes: also called H-AF 2
For the molecule B6, the binding entry is on record as “binds”.

B7: Jovi Hum 26 (antibody, V domains shown)
VH: B1 VH with V20M, R72S, T74K
VL: B1 VL
notes: also called H-AF 12
Take B7: the binding result is “binds”.

B8: Jovi Hum 18 (antibody, V domains shown)
VH: B1 VH with R72S, T74K
VL: B1 VL
notes: also called H-AF 4
Consider B8, for which the binding result is “binds”.

B9: Jovi Hum 17 (antibody, V domains shown)
VH: B1 VH with R72S
VL: B1 VL
notes: also called H-AF 3
Take B9: the binding entry is given as “binds”.

B10: Jovi Hum 27 (antibody, V domains shown)
VH: B1 VH with V20M, M48I
VL: B1 VL
notes: also called H-AF 13
Take B10: the binding entry is reported as “binds”.

B11: chimeric antibody having murine VH and VL domains (Jovi-Mu) (antibody, V domains shown)
VH: EVRLQQSGPDLIKPGASVKMSCKASGYTFTGYVMHWVKQRPGQGLEWIGFINPYNDDIQSNERFRGKATLTSDKSSTTAYMELSSLTSEDSAVYYCARGAGYNFDGAYRFFDFWGQGTTLTVSS
VL: DVVMTQSPLSLPVSLGDQASISCRSSQRLVHSNGNTYLHWYLQKPGQSPKLLIYRVSNRFPGVPDRFSGSGSGTDFTLKISRVEAEDLGIYFCSQSTHVPYTFGGGTKLEIKR
B11: the binding result is on record as “binds”.

B12: chimeric antibody with humanised H-KF688165 VH and murine JOVI-1 VL (antibody, V domains shown)
VH: B1 VH with G26E, T28S, L83V, R85S, R87T, T91A, V93I, M119L
VL: B11 VL
Turning to B12, the binding result is given as “binds”.

B13: chimeric antibody with humanised H-AF062256 VH and murine JOVI-1 VL (antibody, V domains shown)
VH: B1 VH
VL: B11 VL
Turning to B13, the binding result is recorded as “binds”.

B14: chimeric antibody with humanised H-EF177999 VH and murine JOVI-1 VL (antibody, V domains shown)
VH: B1 VH with Q1E, Q6E, I76T, A79V, R85S, D89E, M119L
VL: B11 VL
Turning to B14, the binding result is “binds”.

B15: chimeric antibody with murine JOVI-1 VH and humanised 3aaz VL (antibody, V domains shown)
VH: B11 VH
VL: B1 VL
Take B15: the binding entry is given as “binds”.

Values taken from US20260274948A1 (AUTOLUS, published 2026).
